According to US6339070B1, “Gene construct encoding a heterologous prodrug-activating enzyme and a cell targeting moiety” (Zeneca Limited, priority 1997, dated 2002):

How the values were obtained:
Format in all cases: cell-based
Colo 320DM = test: Fusion protein expression rate of recombinant Colo 320DM clones (ELISA)
LoVo = test: Fusion protein expression rate of recombinant LoVo clones (ELISA)
[1] = test system: recombinant HCT116 inducible cell line; test: Doxycycline induction of fusion protein from inducible recombinant HCT116 cell line; settings: 48 h

B1: (A5B7 Fab-CPG2)2 fusion protein: chimaeric A5B7 anti-CEA Fab, heavy chain Fd linked via (G4S)3 linker to CPG2 R6, dimerised through CPG2 (antibody)
heavy: EVKLVESGGGLVQPGGSLRLSCATSGFTFTDYYMNWVRQPPGKALEWLGFIGNKANGYTTEYSASVKGRFTISRDKSQSILYLQMNTLRAEDSATYYCTRDRGLRFYFDYWGQGTTLTVSSASTKGPSVFPLAPCSRSTSESTAALGCLVKDYFPEPVTVSWNSGALTSGVHTFPAVLQSSGLYSLSSVVTVPSSNFGTQTYTCNVDHKPSNTKVDKTVGGGGSGGGGSGGGGSQKRDNVLFQAATDEQPAVIKTLEKLVNIETGTGDAEGIAAAGNFLEAELKNLGFTVTRSKSAGLVVGDNIVGKIKGRGGKNLLLMSHMDTVYLKGILAKAPFRVEGDKAYGPGIADDKGGNAVILHTLKLLKEYGVRDYGTITVLFNTDEEKGSFGSRDLIQEEAKLADYVLSFEPTSAGDEKLSLGTSGIAYVQVQITGKASHAGAAPELGVNALVEASDLVLRTMNIDDKAKNLRFQWTIAKAGQVSNIIPASATLNADVRYARNEDFDAAMKTLEERAQQKKLPEADVKVIVTRGRPAFNAGEGGKKLVDKAVAYYKEAGGTLGVEERTGGGTDAAYAALSGKPVIESLGLPGFGYHSDKAEYVDISAIPRRLYMAARLIMDLGAGK
light: QTVLSQSPAILSASPGEKVTMTCRASSSVTYIHWYQQKPGSSPKSWIYATSNLASGVPARFSGSGSGTSYSLTISRVEAEDAATYYCQHWSSKPPTFGGGTKLEIKRTVAAPSVFIFPPSDEQLKSGTASVVCLLNNFYPREAKVQWKVDNALQSGNSQESVTEQDSKDSTYSLSSTLTLSKADYEKHKVYACEVTHQGLSSPVTKSFNRGEC
- fusion protein expression rate (Colo 320DM; Colo 320DM clone B3): 10540 ng/10^6cells/24 h
- fusion protein expression rate (Colo 320DM; Colo 320DM clone B9): 885 ng/10^6cells/24 h
- fusion protein expression rate (Colo 320DM; Colo 320DM clone B10): 3090 ng/10^6cells/24 h
- fusion protein expression rate (Colo 320DM; Colo 320DM clone F12): 35660 ng/10^6cells/24 h
- fusion protein expression rate (Colo 320DM; Colo 320DM clone G4): 4720 ng/10^6cells/24 h
- fusion protein expression rate (LoVo; LoVo clone B9): 8370 ng/10^6cells/24 h
- fusion protein expression rate (LoVo; LoVo clone C1): 7350 ng/10^6cells/24 h
- fusion protein expression rate (LoVo; LoVo clone C7): 10770 ng/10^6cells/24 h
- fusion protein expression rate (LoVo; LoVo clone F12): 2983 ng/10^6cells/24 h
- fusion protein expression rate (LoVo; LoVo clone G10): 4140 ng/10^6cells/24 h
- fusion protein in the supernatant ([1]; clone F11, induced with 2 μg/ml doxycycline): 120 ng/mL
- fusion protein in the supernatant ([1]; clone F11, non-induced cells): below 1 ng/ml
